The source of these data is PMC4294353.

Amino acid sequences for entries named in this document (tags omitted).
UniProt P08151: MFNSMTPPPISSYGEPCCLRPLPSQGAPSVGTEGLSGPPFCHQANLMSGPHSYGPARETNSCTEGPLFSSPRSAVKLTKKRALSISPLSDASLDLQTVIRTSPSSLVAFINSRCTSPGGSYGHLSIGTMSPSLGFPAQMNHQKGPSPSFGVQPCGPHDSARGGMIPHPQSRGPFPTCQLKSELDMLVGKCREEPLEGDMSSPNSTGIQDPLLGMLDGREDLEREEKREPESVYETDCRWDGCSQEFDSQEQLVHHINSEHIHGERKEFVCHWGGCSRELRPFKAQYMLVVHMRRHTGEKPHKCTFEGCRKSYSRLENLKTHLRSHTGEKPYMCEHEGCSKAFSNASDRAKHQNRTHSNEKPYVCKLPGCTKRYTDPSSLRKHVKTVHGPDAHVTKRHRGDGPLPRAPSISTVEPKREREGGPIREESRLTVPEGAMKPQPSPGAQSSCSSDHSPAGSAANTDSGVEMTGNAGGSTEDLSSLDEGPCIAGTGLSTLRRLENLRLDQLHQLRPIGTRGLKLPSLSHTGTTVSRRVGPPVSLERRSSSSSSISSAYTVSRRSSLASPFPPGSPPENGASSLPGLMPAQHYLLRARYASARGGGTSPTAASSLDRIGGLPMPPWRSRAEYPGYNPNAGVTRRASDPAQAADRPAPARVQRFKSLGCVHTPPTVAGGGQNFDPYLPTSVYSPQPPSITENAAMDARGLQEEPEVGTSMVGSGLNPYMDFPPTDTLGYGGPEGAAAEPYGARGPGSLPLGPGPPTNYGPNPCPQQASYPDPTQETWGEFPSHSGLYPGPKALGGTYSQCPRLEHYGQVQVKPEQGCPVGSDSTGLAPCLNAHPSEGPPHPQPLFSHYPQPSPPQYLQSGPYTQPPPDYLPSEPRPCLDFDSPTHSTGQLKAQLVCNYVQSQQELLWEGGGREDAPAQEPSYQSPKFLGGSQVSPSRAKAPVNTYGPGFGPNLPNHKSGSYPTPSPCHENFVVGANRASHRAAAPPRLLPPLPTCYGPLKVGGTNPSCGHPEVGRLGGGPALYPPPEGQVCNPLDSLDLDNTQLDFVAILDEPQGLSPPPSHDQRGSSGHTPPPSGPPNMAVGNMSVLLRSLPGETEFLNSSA

Results are given in words; binding and its absence hold for the method and conditions named. In cells and extracts the contact can be indirect. Some entries that bind do so weakly or less than the wild type. For some assays here: Sequences can lack the tags named with a protein.

The target of test [1] is T1, Sufu expressed from the Sufu (NM_016169) plasmid (human) (UniProt Q9UMX1).
T1 sequence: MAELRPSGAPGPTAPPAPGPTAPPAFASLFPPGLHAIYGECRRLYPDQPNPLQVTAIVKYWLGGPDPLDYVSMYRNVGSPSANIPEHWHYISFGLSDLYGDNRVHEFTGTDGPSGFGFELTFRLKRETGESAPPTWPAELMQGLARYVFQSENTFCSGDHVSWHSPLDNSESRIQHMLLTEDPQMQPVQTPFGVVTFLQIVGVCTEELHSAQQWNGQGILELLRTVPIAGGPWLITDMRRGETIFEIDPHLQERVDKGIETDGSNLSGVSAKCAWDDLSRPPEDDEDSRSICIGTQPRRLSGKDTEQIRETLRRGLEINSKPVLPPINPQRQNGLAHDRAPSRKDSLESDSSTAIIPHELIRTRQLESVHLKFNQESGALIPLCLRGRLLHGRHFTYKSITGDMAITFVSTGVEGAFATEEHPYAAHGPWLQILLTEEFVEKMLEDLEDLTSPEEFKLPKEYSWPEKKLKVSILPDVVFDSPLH
Description: co-IP; U87 cells lysed in RIPA buffer; 1 ug anti-Sufu (or anti-Gli1) antibody or control rabbit IgG with protein-A/G PLUS-Agarose beads at 4°C overnight, washed 3 times with RIPA, immunoblot for Gli1 (or Sufu); cells also transfected with Sufu plasmid or Sufu siRNA.

The target of test [2] is T2, Suppressor of fused (Sufu) (human (endogenous in U87)) (UniProt Q9UMX1).
T2 sequence: T1 sequence
The test is described as above.

Consider “glioma-associated oncogene homolog 1 (Gli1) (from UniProt P08151 1-1106)”, for which the binding entry in test [1] and in test [2] was “binds” throughout.
